Read-outs that look alike come from different tables or passages of the source. Some entries share one result that the patent states for a list of compounds.
Tested on: N48K Clarin-1
Assay: Restoration of N48K Clarin-1 expression in HEK293-Clarin-1 N48K-HA D9 cells (HA-tag immunostaining, high content imaging)
Assay type: cell-based
Details: HEK293-Clarin-1 N48K-HA D9 cell line, 24 hr incubation with compound, HA-Clarin-1 staining density per cell, read-out: IC50 values for activity according to the assay method of Example 92

Compound	IC50 [µM]	further results
CN1CCN(C(=O)Cn2nc(-c3ccccc3)c3c(Cl)c(-c4ccccc4)nnc32)CC1 [Compound 1, 2-(4-Chloro-3,5-diphenyl-1H-pyrazolo[3,4-c]pyridazin-1-yl)-1-(4-methylpiperazin-1-yl)ethanone]	≤ 1	IC50 (listed as compound 1): ≤ 5 µM
CN(C)CCNC(=O)Cn1nc(-c2ccccc2)c2c(Cl)c(-c3ccccc3)nnc21 [Compound 2, 2-(4-Chloro-3,5-diphenyl-1H-pyrazolo[3,4-c]pyridazin-1-yl)-N-(2-(dimethylamino)ethyl)acetamide]	≤ 1	IC50 (listed as compound 2): ≤ 5 µM
Cn1nc(-c2cccc(I)c2)c2c(Cl)c(-c3ccccc3)nnc21 [Compound 3, 4-Chloro-3-(3-iodophenyl)-1-methyl-5-phenyl-1H-pyrazolo[3,4-c]pyridazine]	≤ 5	–
Cn1nc(-c2ccccc2)c2c(Cl)c(-c3cccc(F)c3)nnc21 [Compound 10, 4-Chloro-5-(3-fluorophenyl)-1-methyl-3-phenyl-1H-pyrazolo[3,4-c]pyridazine]	≤ 5	–
Cc1ccc(-c2nnc3c(c(-c4ccccc4)nn3C)c2Cl)cc1 [Compound 11, 4-Chloro-1-methyl-3-phenyl-5-p-tolyl-1H-pyrazolo[3,4-c]pyridazine]	≤ 5	–
Cn1nc(-c2cccc(Cl)c2)c2c(Cl)c(-c3ccccc3)nnc21 [Compound 13, 4-chloro-3-(3-chlorophenyl)-1-methyl-5-phenyl-1H-pyrazolo[3,4-c]pyridazine]	≤ 1	IC50 (listed as compound 13): ≤ 5 µM
Cn1nc(-c2ccc(F)cc2)c2c(Cl)c(-c3ccccc3)nnc21 [Compound 14, 4-Chloro-3-(4-fluorophenyl)-1-methyl-5-phenyl-1H-pyrazolo[3,4-c]pyridazine]	≤ 1	IC50 (listed as compound 14): ≤ 5 µM
COc1ccc(-c2nnc3c(c(-c4cccc(OC)c4)nn3C)c2Cl)cc1 [Compound 15, 4-chloro-3-(3-methoxyphenyl)-5-(4-methoxyphenyl)-1-methyl-1H-pyrazolo[3,4-c]pyridazine]	≤ 5	–
Cc1cccc(-c2nnc3c(c(-c4ccccc4)nn3C)c2Cl)c1 [Compound 16, 4-Chloro-1-methyl-3-phenyl-5-m-tolyl-1H-pyrazolo[3,4-c]pyridazine]	≤ 5	–
COc1cccc(-c2nn(C)c3nnc(-c4ccccc4)c(Cl)c23)c1 [Compound 17, 4-chloro-3-(3-methoxyphenyl)-1-methyl-5-phenyl-1H-pyrazolo[3,4-c]pyridazine]	≤ 1	IC50 (listed as compound 17): ≤ 5 µM
CCn1nc(-c2ccccc2)c2c(Cl)c(-c3ccccc3)nnc21 [Compound 18, 4-Chloro-1-ethyl-3,5-diphenyl-1H-pyrazolo[3,4-c] pyridazine]	≤ 5	–
Cc1cccc(-c2nn(C)c3nnc(-c4ccccc4)c(Cl)c23)c1 [Compound 19, 4-chloro-1-methyl-5-phenyl-3-m-tolyl-1H-pyrazolo[3,4-c]pyridazine]	≤ 1	IC50 (listed as compound 19): ≤ 5 µM
Cc1ccccc1-c1nn(C)c2nnc(-c3ccccc3)c(Cl)c12 [Compound 20, 4-Chloro-1-methyl-5-phenyl-3-o-tolyl-1H-pyrazolo[3,4-c]pyridazine]	≤ 5	–
Cc1ccc(-c2nn(C)c3nnc(-c4ccccc4)c(Cl)c23)cc1 [Compound 21, 4-Chloro-1-methyl-5-phenyl-3-p-tolyl-1H-pyrazolo[3,4-c]pyridazine]	≤ 5	–
Cn1nc(-c2ccccc2F)c2c(Cl)c(-c3ccccc3)nnc21 [Compound 22, 4-Chloro-3-(2-fluorophenyl)-1-methyl-5-phenyl-1H-pyrazolo[3,4-c]pyridazine]	≤ 5	–

More lines, main results first:

IC50 [µM]	Compound	further results
≤ 5	Cn1nc(-c2ccc(C(F)(F)F)cc2)c2c(Cl)c(-c3ccccc3)nnc21 [Compound 23, 4-Chloro-1-methyl-5-phenyl-3-(4-(trifluoromethyl)phenyl)-1H-pyrazolo[3,4-c]pyridazine]	–
≤ 5	Cn1nc(-c2ccc(C#N)cc2)c2c(Cl)c(-c3ccccc3)nnc21 [Compound 24, 4-(4-chloro-1-methyl-5-phenyl-1H-pyrazolo[3,4-c]pyridazin-3-yl)benzonitrile]	–
≤ 5	CNC(=O)c1ccc(-c2nn(C)c3nnc(-c4ccccc4)c(Cl)c23)cc1 [Compound 25, 4-(4-Chloro-1-methyl-5-phenyl-1H-pyrazolo[3,4-c]pyridazin-3-yl)-N-methylbenzamide]	–
≤ 5	Cn1nc(-c2ccc(Cl)cc2)c2c(Cl)c(-c3ccccc3)nnc21 [Compound 26, 4-chloro-3-(4-chlorophenyl)-1-methyl-5-phenyl-1H-pyrazolo[3,4-c]pyridazine]	–
≤ 5	COc1ccc(-c2nn(C)c3nnc(-c4ccccc4)c(Cl)c23)cc1 [Compound 27, 4-chloro-3-(4-methoxyphenyl)-1-methyl-5-phenyl-1H-pyrazolo[3,4-c]pyridazine]	–
≤ 1	Clc1c(-c2ccccc2)nnc2c1c(-c1ccccc1)nn2CCN1CCOCC1 [Compound 28, 4-(2-(4-chloro-3,5-diphenyl-1H-pyrazolo[3,4-c]pyridazin-1-yl)ethyl)morpholine]	IC50 (listed as compound 28): ≤ 5 µM
≤ 5	Cn1nc(-c2ccccc2)c2c(Cl)c(-c3cccc(C(F)(F)F)c3)nnc21 [Compound 29, 4-chloro-1-methyl-3-phenyl-5-(3-(trifluoromethyl)phenyl)-1H-pyrazolo[3,4-c]pyridazine]	–
≤ 5	Cn1nc(-c2cccc(C#CCO)c2)c2c(Cl)c(-c3ccccc3)nnc21 [Compound 30, 3-(3-(4-chloro-1-methyl-5-phenyl-1H-pyrazolo[3,4-c]pyridazin-3-yl)phenyl)prop-2-yn-1-ol]	–
≤ 5	Clc1c(-c2ccccc2)nnc2c1c(-c1ccccc1)nn2Cc1ccccc1 [Compound 31, 1-Benzyl-4-chloro-3,5-diphenyl-1H-pyrazolo[3,4]-pyridazine]	–
≤ 1	Cn1nc(-c2cccc(F)c2)c2c(Cl)c(-c3ccccc3)nnc21 [Compound 32, 4-Chloro-3-(3-fluorophenyl)-1-methyl-5-phenyl-1H-pyrazolo[3,4-c]pyridazine]	IC50 (listed as compound 32): ≤ 5 µM
≤ 5	Cn1nc(-c2ccc(F)cc2)c2c(Cl)c(-c3ccc(F)cc3)nnc21 [Compound 33, 4-chloro-3,5-bis(4-fluorophenyl)-1-methyl-1H-pyrazolo[3,4-c]pyridazine]	–
≤ 5	Cn1nc(-c2cccc(C#N)c2)c2c(Cl)c(-c3ccccc3)nnc21 [Compound 34, 3-(4-chloro-1-methyl-5-phenyl-1H-pyrazolo[3,4-c]pyridazin-3-yl)benzonitrile]	–
≤ 10	Cn1nc(-c2ccccc2Cl)c2c(Cl)c(-c3ccccc3)nnc21 [Compound 37, 4-chloro-3-(2-chlorophenyl)-1-methyl-5-phenyl-1H-pyrazolo[3,4-c]pyridazine]	IC50 (listed as compound 37): ≤ 5 µM
≤ 5	CC(C)N1CCN(C(=O)Cn2nc(-c3ccccc3)c3c(Cl)c(-c4ccccc4)nnc32)CC1 [Compound 38, 2-(4-Chloro-3,5-diphenyl-1H-pyrazolo[3,4-c]pyridazin-1-yl)-1-(4-isopropylpiperazin-1-yl)ethanone]	–
≤ 5	Cn1nc(-c2ccccc2)c2c(Cl)c(-c3ccccc3)nnc21 [Compound 39, 4-chloro-1-methyl-3,5-diphenyl-1H-pyrazolo[3,4-c]pyridazine]	–
≤ 10	CN(C)CCn1nc(-c2ccccc2)c2c(Cl)c(-c3ccccc3)nnc21 [Compound 42]	–
≤ 5	O=C(CCCC[C@@H]1SC[C@@H]2NC(=O)N[C@@H]21)NCCCNC(=O)Cn1nc(-c2ccccc2)c2c(Cl)c(-c3ccccc3)nnc21 [Compound 44, N-(3-(2-(4-chloro-3,5-diphenyl-1H-pyrazolo[3,4-c]pyridazin-1-yl)acetamido)propyl)-5-((4S)-2-oxohexahydro-1H-thieno[3,4-d]imidazol-4-yl)pentanamide]	–
≤ 10	O=C(O)Cn1nc(-c2ccccc2)c2c(Cl)c(-c3ccccc3)nnc21 [Compound 47, 2-(4-chloro-3,5-diphenyl-1H-pyrazolo[3,4-c]pyridazin-1-yl)acetic acid]	IC50 (listed as compound 47): ≤ 5 µM
≤ 10	O=C(Cn1nc(-c2ccccc2)c2c(Cl)c(-c3ccccc3)nnc21)N1CCOCC1 [Compound 48, 2-(4-chloro-3,5-diphenyl-1H-pyrazolo[3,4-c]pyridazin-1-yl)-1-morpholinoethanone]	–
≤ 10	CN(CC#N)C(=O)Cn1nc(-c2ccccc2)c2c(Cl)c(-c3ccccc3)nnc21 [Compound 49, 2-(4-chloro-3,5-diphenyl-1H-pyrazolo[3,4-c]pyridazin-1-yl)-N-(cyanomethyl)-N-methylacetamide]	–
≤ 10	O=C(Cn1nc(-c2ccccc2)c2c(Cl)c(-c3ccccc3)nnc21)NCCN1CCOCC1 [Compound 50, 2-(4-chloro-3,5-diphenyl-1H-pyrazolo[3,4-c]pyridazin-1-yl)-N-(2-morpholinoethyl)acetamide]	–
